The list shows a part of the results.
Assays:
Assay in all cases: glycan array binding signal (z-score within array); higher = stronger binding
Details in all cases: glycan notation: IUPAC condensed, linker removed
[1] = target: GlcNAc(b1-4)GlcNAc(b1-4)GlcNAc(b1-4)GlcNAc(b1-4)GlcNAc(b1-4)GlcNAc
Summary of the method: (§1)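 Glycan array data came from 3228 arrays in the Consortium for Functional Glycomics database, and only arrays with an available protein sequence were kept. Glycan names were put into IUPAC-condensed notation, and columns mapping to the same glycan were averaged. The binding signal is a within-array Z-score, averaged across arrays of one protein sequence run at different concentrations or buffers and across linkers. A negative Z-score can be read as non-binding.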

[2] = target: GlcNAc(b1-4)[GlcNAc(b1-6)]GalNAc
Summary of the method: as §1

[3] = target: GlcNAc(b1-6)Gal(b1-4)GlcNAc
Summary of the method: as §1

GlcNAc(b1-6)GalNAc = target: GlcNAc(b1-6)GalNAc
Summary of the method: as §1

[4] = target: GlcNAc6S(b1-3)Gal(b1-4)GlcNAc
Summary of the method: as §1

Kdn(a2-3)Gal(b1-3)GalNAc = target: Kdn(a2-3)Gal(b1-3)GalNAc
Summary of the method: as §1

Kdn(a2-3)Gal(b1-3)GlcNAc = target: Kdn(a2-3)Gal(b1-3)GlcNAc
Summary of the method: as §1

Kdn(a2-3)Gal(b1-4)Glc = target: Kdn(a2-3)Gal(b1-4)Glc
Summary of the method: as §1

Kdn(a2-3)Gal(b1-4)GlcNAc = target: Kdn(a2-3)Gal(b1-4)GlcNAc
Summary of the method: as §1

[5] = target: Kdn(a2-3)Gal(b1-4)[Fuc(a1-3)]GlcNAc
Summary of the method: as §1

Kdn(a2-6)Gal(b1-4)GlcNAc = target: Kdn(a2-6)Gal(b1-4)GlcNAc
Summary of the method: as §1

[6] = target: Man(a1-2)Man(a1-2)Man(a1-3)Man
Summary of the method: as §1

[7] = target: Man(a1-2)Man(a1-2)Man(a1-6)[Man(a1-3)]Man
Summary of the method: as §1

Man(a1-2)Man(a1-3)Man = target: Man(a1-2)Man(a1-3)Man
Summary of the method: as §1

[8] = target: Man(a1-2)Man(a1-3)[Man(a1-2)Man(a1-6)]Man
Summary of the method: as §1

[9] = target: Man(a1-2)Man(a1-3)[Man(a1-2)Man(a1-6)]Man(a1-6)[Man(a1-2)Man(a1-2)Man(a1-3)]Man
Summary of the method: as §1

[10] = target: Man(a1-2)Man(a1-3)[Man(a1-2)Man(a1-6)]Man(a1-6)[Man(a1-2)Man(a1-2)Man(a1-3)]Man(b1-4)GlcNAc(b1-4)GlcNAc
Summary of the method: as §1

[11] = target: Man(a1-2)Man(a1-3)[Man(a1-6)]Man(a1-6)[Man(a1-2)Man(a1-3)]Man(b1-4)GlcNAc(b1-4)GlcNAc
Summary of the method: as §1

[12] = target: Man(a1-2)Man(a1-6)[Man(a1-3)]Man(a1-6)[Man(a1-2)Man(a1-2)Man(a1-3)]Man
Summary of the method: as §1

[13] = target: Man(a1-2)Man(a1-6)[Man(a1-3)]Man(a1-6)[Man(a1-2)Man(a1-2)Man(a1-3)]Man(b1-4)GlcNAc(b1-4)GlcNAc
Summary of the method: as §1

Man(a1-3)[Man(a1-6)]Man = target: Man(a1-3)[Man(a1-6)]Man
Summary of the method: as §1

[14] = target: Man(a1-3)[Man(a1-6)]Man(a1-6)[Man(a1-2)Man(a1-3)]Man(b1-4)GlcNAc(b1-4)GlcNAc
Summary of the method: as §1

[15] = target: Man(a1-3)[Man(a1-6)]Man(a1-6)[Man(a1-3)]Man
Summary of the method: as §1

[16] = target: Man(a1-3)[Man(a1-6)]Man(a1-6)[Man(a1-3)]Man(b1-4)GlcNAc(b1-4)GlcNAc
Summary of the method: as §1

[17] = target: Man(a1-3)[Man(a1-6)]Man(b1-4)GlcNAc(b1-4)GlcNAc
Summary of the method: as §1

[18] = target: Man(a1-3)[Man(a1-6)]Man(b1-4)GlcNAc(b1-4)[Fuc(a1-6)]GlcNAc
Summary of the method: as §1

Man(a1-6)Man = target: Man(a1-6)Man
Summary of the method: as §1

Man(b1-4)GlcNAc = target: Man(b1-4)GlcNAc
Summary of the method: as §1

MurNAc(b1-4)GlcNAc = target: MurNAc(b1-4)GlcNAc
Summary of the method: as §1

Neu5Ac(a2-3)Gal = target: Neu5Ac(a2-3)Gal
Summary of the method: as §1

[19] = target: Neu5Ac(a2-3)Gal(b1-3)GalNAc
Summary of the method: as §1

[20] = target: Neu5Ac(a2-3)Gal(b1-3)GalNAc(b1-3)Gal(a1-4)Gal(b1-4)Glc
Summary of the method: as §1

[21] = target: Neu5Ac(a2-3)Gal(b1-3)GalNAc(b1-4)[Neu5Ac(a2-3)]Gal(b1-4)Glc
Summary of the method: as §1

[22] = target: Neu5Ac(a2-3)Gal(b1-3)GalNAc(b1-4)[Neu5Ac(a2-8)Neu5Ac(a2-3)]Gal(b1-4)Glc
Summary of the method: as §1

[23] = target: Neu5Ac(a2-3)Gal(b1-3)GalNAc6S
Summary of the method: as §1

[24] = target: Neu5Ac(a2-3)Gal(b1-3)GlcNAc
Summary of the method: as §1

[25] = target: Neu5Ac(a2-3)Gal(b1-3)GlcNAc(b1-2)Man
Summary of the method: as §1

[26] = target: Neu5Ac(a2-3)Gal(b1-3)GlcNAc(b1-2)Man(a1-3)[GlcNAc(b1-4)][Neu5Ac(a2-3)Gal(b1-3)GlcNAc(b1-2)Man(a1-6)]Man(b1-4)GlcNAc(b1-4)GlcNAc
Summary of the method: as §1

[27] = target: Neu5Ac(a2-3)Gal(b1-3)GlcNAc(b1-2)Man(a1-3)[Neu5Ac(a2-3)Gal(b1-3)GlcNAc(b1-2)Man(a1-6)]Man(b1-4)GlcNAc(b1-4)GlcNAc
Summary of the method: as §1

[28] = target: Neu5Ac(a2-3)Gal(b1-3)GlcNAc(b1-2)[Neu5Ac(a2-3)Gal(b1-3)GlcNAc(b1-4)]Man(a1-6)[Neu5Ac(a2-3)Gal(b1-3)GlcNAc(b1-2)Man(a1-3)]Man(b1-4)GlcNAc(b1-4)GlcNAc
Summary of the method: as §1

[29] = target: Neu5Ac(a2-3)Gal(b1-3)GlcNAc(b1-3)Gal(b1-3)GlcNAc
Summary of the method: as §1

[30] = target: Neu5Ac(a2-3)Gal(b1-3)GlcNAc(b1-3)Gal(b1-4)GlcNAc
Summary of the method: as §1

[31] = target: Neu5Ac(a2-3)Gal(b1-3)GlcNAc(b1-3)GalNAc
Summary of the method: as §1

[32] = target: Neu5Ac(a2-3)Gal(b1-3)GlcNAc(b1-4)Gal(b1-4)Glc
Summary of the method: as §1

[33] = target: Neu5Ac(a2-3)Gal(b1-3)GlcNAc(b1-6)GalNAc
Summary of the method: as §1

B1: PhypaEULS3 (Physcomitrella patens) (protein)
chain: MLPVRLHCKADPNFNLAAVPGQGPVMVPFSPNDDFQVWYKDVTMSTRVKDETGSSAFSLINKATGQALRHAPEDLAQCLLADYDSNALDQTVLWTMSEDMGQGYCCIRLASQITRNLDVFRGDKKSGGVKEGSPVITFAWKKQDNQIWKMITAILEQKLISEEDLNSAVDHHHHHH
[1]
  glycan array binding signal (z-score): -0.245
[2]
  glycan array binding signal (z-score): -2.07
[3]
  glycan array binding signal (z-score): 0.429
GlcNAc(b1-6)GalNAc
  glycan array binding signal (z-score): -0.697
[4]
  glycan array binding signal (z-score): 1.26
Kdn(a2-3)Gal(b1-3)GalNAc
  glycan array binding signal (z-score): 0.229
Kdn(a2-3)Gal(b1-3)GlcNAc
  glycan array binding signal (z-score): -1.48
Kdn(a2-3)Gal(b1-4)Glc
  glycan array binding signal (z-score): -0.521
Kdn(a2-3)Gal(b1-4)GlcNAc
  glycan array binding signal (z-score): -0.898
[5]
  glycan array binding signal (z-score): 0.5
Kdn(a2-6)Gal(b1-4)GlcNAc
  glycan array binding signal (z-score): 0.671
[6]
  glycan array binding signal (z-score): -0.183
[7]
  glycan array binding signal (z-score): 0.733
Man(a1-2)Man(a1-3)Man
  glycan array binding signal (z-score): -0.659
[8]
  glycan array binding signal (z-score): -0.808
[9]
  glycan array binding signal (z-score): -0.367
[10]
  glycan array binding signal (z-score): -0.557
[11]
  glycan array binding signal (z-score): 0.497
[12]
  glycan array binding signal (z-score): -0.6
[13]
  glycan array binding signal (z-score): 2.25
Man(a1-3)[Man(a1-6)]Man
  glycan array binding signal (z-score): 1.11
[14]
  glycan array binding signal (z-score): 0.686
[15]
  glycan array binding signal (z-score): -2.6
[16]
  glycan array binding signal (z-score): -0.185
[17]
  glycan array binding signal (z-score): 0.192
[18]
  glycan array binding signal (z-score): -0.08
Man(a1-6)Man
  glycan array binding signal (z-score): -1.18
Man(b1-4)GlcNAc
  glycan array binding signal (z-score): 0.276
MurNAc(b1-4)GlcNAc
  glycan array binding signal (z-score): -0.675
Neu5Ac(a2-3)Gal
  glycan array binding signal (z-score): -0.224
[19]
  glycan array binding signal (z-score): 1.32
[20]
  glycan array binding signal (z-score): -0.139
[21]
  glycan array binding signal (z-score): 0.084
[22]
  glycan array binding signal (z-score): 0.059
[23]
  glycan array binding signal (z-score): 1.77
[24]
  glycan array binding signal (z-score): 0.05
[25]
  glycan array binding signal (z-score): -0.422
[26]
  glycan array binding signal (z-score): 0.246
[27]
  glycan array binding signal (z-score): 0.929
[28]
  glycan array binding signal (z-score): 0.414
[29]
  glycan array binding signal (z-score): -0.609
[30]
  glycan array binding signal (z-score): -0.749
[31]
  glycan array binding signal (z-score): 0.605
[32]
  glycan array binding signal (z-score): -0.177
[33]
  glycan array binding signal (z-score): -0.065
